# Laboratory results as given in PubChem BioAssay AID602346 (Broad Institute, 2012).
# Among all 340,000 compounds or so, about 1,200 (0.35%) were called active. This list was built around the results that the source calls inconclusive (neither active nor inactive); the mix of calls is not that of the screen. Cut-off read from the data, not from the text of the source: active = inhibition above about 50% (passing the limit was not always enough); inconclusive = no clear call, values can overlap the other calls; inactive = below about 31%.
# Assay: blockers of Vif multimerization in cells – imaging, HEK293T, single point, primary screen (AID 602346)
# Details: Vif self-association by quenched fluorescence, 24 h, at 7.49 µM, stronger effect = higher value
row,Compound,inhibition
1,Cc1cc(C)c(OCCOCCN2CCCC2)c(C)c1,inactive: -2.23%
2,CCOC(=O)c1nn(-c2ccc(C)cc2)cc1C(=O)c1ccccc1,inconclusive: 25.8%
3,NNC(=O)c1oc2nc(-c3ccccc3)cc(-c3ccccc3)c2c1N,active: 71.4%
4,COc1ccc(-c2nnc(SCC(=O)N3CCCc4ccccc43)o2)cc1OC,active: 61.2%
5,CC(NC(=O)/C(=C/c1ccc2c(c1)OCO2)NC(=O)c1cccc([N+](=O)[O-])c1)C(=O)O (centres undefined),inconclusive: 26.9%
6,Cc1cc(-c2ccccc2)c2c3c(c(-c4ccccc4)n2n1)c(=O)n(C)c(=O)n3C,inconclusive: 37%
7,CCOc1ccc(C(=O)Nc2ccc3c(c2)OCCO3)cc1OC,inactive: -7.8%
8,O=C(CSc1nccn1-c1ccccc1)NCc1ccc(F)cc1,inactive: -2.79%
9,COc1cc(CC(=O)NCCCc2ccccc2)cc(OC)c1OC,inconclusive: 21.8%
10,O=C(Nc1nccs1)c1ncc(Cl)c(Cl)c1Cl,inconclusive: 40.9%
11,CC(C)NC(=O)c1ccccc1NC(=O)C(C)Oc1ccccc1 (centres undefined),inconclusive: 30.2%
12,NC(=S)NN=C(c1ccc(F)cc1)C1CC1,active: 69.9%
13,O=C(COC(=O)/C=C/C(=O)OCC(=O)Nc1ccccc1F)Nc1ccccc1F,active: 79.4%
14,S=c1nc[nH]c2c1ncn2-c1ccccc1,inconclusive: 41.6%
15,CCOc1ccc(N=C2NC(=O)S/C2=C\c2ccc(N(C)C)cc2)cc1,active: 148%
16,CC(=O)Nc1ccc(Nc2cc(C)nc3c(-c4ccc(Cl)cc4)c(C)nn23)cc1,inconclusive: 23.8%
17,O=C(Cc1ccc(-c2ccccc2)cc1)NCc1ccccc1,active: 53.7%
18,CN(C)S(=O)(=O)c1ccc(C(=O)NCC2(N3CCOCC3)CCCCC2)cc1,inconclusive: 26.4%
19,O=S(=O)(NCC(Nc1ccccc1)c1ccccc1)c1ccc(Cl)cc1 (centres undefined),inconclusive: 24.9%
20,CC(C)CCn1c(N)c(S(=O)(=O)c2cccs2)c2nc3ccccc3nc21,inactive: -1.71%
21,O=C(O)C1CCCCC1C(=O)Nc1cccc(C(=O)N2CCCCC2)c1 (centres undefined),inactive: 4.89%
22,O=C1NC(=O)C2(CCCCC2C2CCCCC2)N1 (centres undefined),inconclusive: 29.3%
23,Clc1ccc(/C=N/N2CCCCC2)cc1,inconclusive: 36.4%
24,Cn1nc([N+](=O)[O-])nc1N1CCOCC1,inconclusive: 40.7%

row,Compound,inhibition
1,Cc1cc(C(F)(F)F)n2nc(-c3cnn(C)c3C(F)(F)F)cc2n1,active: 67.6%
2,O=C(COC(=O)/C=C/c1ccc(OC(F)F)cc1)NC(=O)NC1CCCCC1,inconclusive: 28.2%
3,N#CCCN1CCN(CCC#N)C1=S,inconclusive: 39.8%
4,O=S(=O)(NCc1ccccc1)c1ccc(Br)s1,inconclusive: 15.5%
5,NNC(=O)c1ccc(COc2ccc3ccccc3c2)cc1,inactive: 13%
6,CN(C)c1ncnc2c1ccn2C1OC(CO)C(O)C1O (centres undefined),inconclusive: 45%
7,Cc1cccc(NC(=S)NC(=O)/C=C/c2ccco2)c1,inactive: 11.6%
8,O=C(O)c1ccn(CSc2cc(Cl)ccc2Cl)n1,inconclusive: 47.2%
9,CC(C)CN1C(=O)C(=O)N(CC(=O)c2ccc3c(c2)OCO3)C1=O,active: 147%
10,CCn1c(COc2cccc(C)c2)nnc1SCC(=O)NC1CCCC1,inactive: 6.58%
11,CCS(=O)(=O)N1CCC(C(=O)NC2CCCCCCC2)CC1,inconclusive: 30.2%
12,CCSc1nnc(-c2ccc(C)cc2)c2ccccc12,inconclusive: 21%
13,Cc1cnc(NC(=O)NCC2CCCC(CNC(=O)Nc3ncc(C)s3)C2)s1 (centres undefined),inactive: -10.3%
14,O=c1oc2ccccc2c(N2CCCCC2)c1CN1CCCC1,inconclusive: 46.7%
15,COc1ccc2[nH]c(C)c(CCNC(=S)Nc3cc(C)ccc3C)c2c1,inactive: 1.39%
16,CC1CCCCN1C(=O)COC(=O)c1ccc(N2CCCC2=O)cc1 (centres undefined),inactive: 5.49%
17,CC(NC(=O)C1CCN(CCOc2ccc(Cl)cc2)CC1)c1cccc2ccccc12 (centres undefined),active: 66%
18,CCN(CC)CCC(c1ccc(N(C)C)cc1)c1c(O)cc(OC)cc1OC (centres undefined),inconclusive: 26.4%
19,CC1CCN(c2nnc(N)s2)CC1,inconclusive: 36.8%
20,CCCn1c(C)cc(-c2csc(N)n2)c1C,inconclusive: 23.3%
21,O=C(COC(=O)/C=C/C(=O)OCC(=O)NC12CC3CC(CC(C3)C1)C2)NC12CC3CC(CC(C3)C1)C2,inactive: -9.55%
22,CC1CCCCC12NC(=O)N(CC(=O)OCc1c(F)cccc1Cl)C2=O (centres undefined),inconclusive: 43.5%
23,O=C(NC(Cc1ccccc1)C(=O)O)OCc1ccccc1 (centres undefined),inactive: 6.41%
24,CCSc1nnc(NC(=O)C2CSC3(C)CCC(=O)N23)s1 (centres undefined),inactive: 2.12%

# In the list so far, these have a COOH group:
row,Compound,inhibition
5,CC(NC(=O)/C(=C/c1ccc2c(c1)OCO2)NC(=O)c1cccc([N+](=O)[O-])c1)C(=O)O (centres undefined),inconclusive: 26.9%
21,O=C(O)C1CCCCC1C(=O)Nc1cccc(C(=O)N2CCCCC2)c1 (centres undefined),inactive: 4.89%
8,O=C(O)c1ccn(CSc2cc(Cl)ccc2Cl)n1,inconclusive: 47.2%
23,O=C(NC(Cc1ccccc1)C(=O)O)OCc1ccccc1 (centres undefined),inactive: 6.41%

# Later entries.

row,Compound,inhibition
1,Cc1ccc(S(=O)(=O)C(CCC(=O)c2ccc(Cl)cc2)C(N)=O)cc1 (centres undefined),inconclusive: 25.5%
2,CCOC(=O)c1c(C)c(C(=O)NCCCN2CCCC2=O)c(C)n1CC,inconclusive: 34.1%
3,O=C1C=C(c2ccc3ncccc3c2)C[C@@H](c2ccc3c(c2)OCO3)C1,inconclusive: 30.3%
4,CCCCc1ncc(CN2CCC(n3nccc3NC(=O)c3ccccc3Cl)CC2)[nH]1,inactive: 7.11%
5,Cc1c(Cl)cccc1NC(=S)N1CCN(c2ccc([N+](=O)[O-])cn2)CC1,inactive: 13.3%
6,COc1ccccc1-c1cccc2nccn12,active: 66.8%
7,CCC(=O)Nc1cc(SCCO)cc([N+](=O)[O-])c1,inconclusive: 33.1%
8,CSc1ccccc1C(=O)OCC(=O)Nc1cccnc1Cl,inconclusive: 33.7%
9,CC(=O)c1cccc(NC(=O)c2cc(=O)c3ccccc3o2)c1,inconclusive: 30.1%
10,CCOC(=O)CSC1=C(C#N)C(=O)NC(c2ccc(OC)c(OC)c2)S1 (centres undefined),inconclusive: 28.2%
11,CN1/C(=C/c2cccc[n+]2C)Sc2ccccc21,active: 118%
12,N#Cc1cc(-c2ccccc2)nnc1Oc1ccccc1Cl,inconclusive: 25.4%
13,COC(=O)c1ccc(NC(=O)c2cc(-c3ccccn3)nc3ccccc23)cc1,active: 62.3%
14,c1cn2cc(-c3ccc4c(c3)OCO4)nc2s1,inconclusive: 49%
15,COc1ccc(C2c3ccc(O)cc3Oc3ncn4nc(-c5ccccn5)nc4c32)cc1 (centres undefined),inconclusive: 36.9%
16,Cc1ccccc1-c1ccc(=O)n(CC(=O)Nc2ccc(S(=O)(=O)N(C)C)cc2)n1,inactive: -5.71%
17,CCCOC(=O)c1ccc(NC(=O)COC(=O)C2CCN(c3ccc(C(F)(F)F)cn3)CC2)cc1,inconclusive: 36.8%
18,COC(=O)c1cccc(NC(=O)CSc2nnc(-c3ccco3)o2)c1,active: 57.6%
19,COc1ccc(OC)c(NC(=O)COc2ccc3c(c2)CCC3)c1,inconclusive: 24.4%
20,O=C(NCc1ccccc1Br)c1cccc2c1C(=O)c1ccc(-c3ccc(OC(F)(F)F)cc3)cc1S2(=O)=O,inconclusive: 26.9%
21,O=C(O)CCN1C(=O)NC2(CCCC2)C1=O,inconclusive: 38%
22,CC1CCN(CCCn2c(=S)[nH]c3ccccc3c2=O)CC1,inconclusive: 38.7%
23,O=c1c2ccccc2cnn1CCOc1cccc(Br)c1,inactive: 5.71%
24,CCC[C@@H](CN1CCC[C@H]1CN1C(N)=NC[C@@H]1Cc1ccccc1)N1C[C@@H](Cc2ccccc2)N(CCCC2CCCC2)C1=N,inconclusive: 21.1%

row,Compound,inhibition
1,CN(C)S(=O)(=O)c1ccc(C(=O)Nc2nc3ccccc3[nH]2)cc1,inactive: -9.63%
2,COC(=O)c1cc(Cl)c(NC(=O)c2cc3ccccc3o2)cc1OC,active: 63.1%
3,O=C1c2ccccc2C(Nc2ccc(S(=O)(=O)N3CCOCC3)cc2)N1c1ccccn1 (centres undefined),active: 52.1%
4,O=C(CSc1nnnn1-c1cccc(F)c1)Nc1nc2ccccc2s1,inactive: 48.5%
5,O=C(C[n+]1cc(Br)cc2ccccc21)c1ccccc1,active: 54.8%
6,COc1ccc(CNC(=O)C2CCCN(S(=O)(=O)c3c(C)n[nH]c3C)C2)cc1 (centres undefined),inconclusive: 24.4%
7,CCC(C)N(C(=O)COC(=O)c1cc([N+](=O)[O-])ccc1N1CCOCC1)C1CCS(=O)(=O)C1 (centres undefined),inconclusive: 38.9%
8,O=Cc1ccc(OCC(=O)N2CCc3ccccc32)c(Br)c1,inactive: -11.6%
9,Cc1c(C(=O)NN2CCN(C)CC2)cccc1[N+](=O)[O-],inconclusive: 34.6%
10,COc1ccc(C2C3=C(CC(C)(C)CC3=O)Oc3ncn(CCO)c(=N)c32)cc1OC (centres undefined),inconclusive: 46%
11,Cc1ccccc1NC(=O)c1ccc2ccccc2c1,inactive: -1.27%
12,CCOC(=O)c1c(C)nc(C)c(C(=O)OCC)c1-c1ccco1,inactive: -6.82%
13,O=C(COc1ccc([N+](=O)[O-])cc1)Nc1ccc(S(=O)(=O)N2CCOCC2)cc1,active: 54.8%
14,OCCn1c(-c2ccc3c(c2)OCO3)csc1=Nc1ccccc1,inactive: -24.7%
15,Cc1ccccc1NC(=O)C(=Cc1ccc(C(=O)O)cc1)C(=O)Nc1ccccc1C,inconclusive: 46.1%
16,CC(C)COCc1ccc(O)c2ncccc12,inactive: -1%
17,Cc1nc(C(=O)Nc2ccc(Cl)cc2Cl)nn1-c1cc(OC(C)C)c(Cl)cc1Cl,inconclusive: 36.7%
18,Cc1occc1C(=O)Nc1ccc(Br)cc1F,inactive: -5.08%
19,O=C(Cc1ccccc1)Nc1ccc(N2CCOCC2)cc1,active: 59.3%
20,O=C1NN(c2ccccc2)C(=O)/C1=C/c1ccc(Sc2ccc(Cl)cc2)o1,inactive: 0.956%
21,Cc1ccc(OC(=O)CCC(=O)OCCCC(F)(F)C(F)(F)F)cc1,inconclusive: 46.5%
22,Cc1ccc(CSc2nc3ccccc3c(=O)n2CCCC(=O)NCc2ccco2)cc1,inconclusive: 30.2%
